Measured values taken from PMC9875507.
For at least one entry, the source does not settle the construct or the ends of the probe. For part of these data: No signal at the amounts used counts as a negative. A weaker result is weaker than the reference pair of the same experiment. For part of these data: At least one verdict was read from the data and is not stated in words by the source.

Protein sequences, listed by entry. Tags and fused reporters are not part of them. Residues count along the entry.
UniProt P26367, 1-269: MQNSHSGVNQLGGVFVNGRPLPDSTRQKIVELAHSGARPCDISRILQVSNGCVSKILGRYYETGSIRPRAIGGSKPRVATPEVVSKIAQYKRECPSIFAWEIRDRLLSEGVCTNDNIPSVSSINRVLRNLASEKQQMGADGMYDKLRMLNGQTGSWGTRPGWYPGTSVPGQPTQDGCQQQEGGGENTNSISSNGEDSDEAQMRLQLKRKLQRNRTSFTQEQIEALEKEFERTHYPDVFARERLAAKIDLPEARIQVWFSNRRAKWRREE

Tests used:
Pax6 PD(5a)/HD = assay: EMSA; conditions: not stated, autoradiography 6 h (PD/HD) and 16 h (PD(5a)/HD), protein details: GST, label: radiolabel (autoradiography)
Pax6 PD/HD = Pax6 PD/HD (UniProt P26367); assay: EMSA; conditions: not stated, autoradiography 6 h (PD/HD) and 16 h (PD(5a)/HD), recombinant protein, protein details: GST, label: radiolabel (autoradiography)

## GAAAACGAGTATTCACGCATCACAAAACAAAGAGCT (double strand) [motif 1-1 methylated CpG]
Pax6 PD(5a)/HD; symmetric 5mC at the single CpG of the site (probably C16 of top strand; exact position only in Fig 13A), recombinant protein
  binding result: binds
Pax6 PD/HD; symmetric 5mC at the single CpG of the site (probably C16 of top strand; exact position only in Fig 13A)
  binding result: binds

## GAAAACGAGTATTCACGCATCACAAAACAAAGAGCT (double strand) [motif 1-1 unmethylated]
Pax6 PD(5a)/HD; recombinant protein
  binding result: binds
Pax6 PD/HD
  binding result: binds

## TTCAGGAAAATTTCCGCATGAATGGCGCAGCTCGAGT (double strand) [motif 3-3 both CpGs methylated]
Pax6 PD(5a)/HD; reduced vs downstream mono-methylated, symmetric 5mC at both CpGs (probably C15 and C26 of top strand; marked in Fig 14A), recombinant protein
  binding result: binds more weakly
Pax6 PD/HD; reduced vs downstream mono-methylated, symmetric 5mC at both CpGs (probably C15 and C26 of top strand; marked in Fig 14A)
  binding result: binds more weakly

## TTCAGGAAAATTTCCGCATGAATGGCGCAGCTCGAGT (double strand) [motif 3-3 downstream CpG methylated]
Pax6 PD(5a)/HD; symmetric 5mC at downstream CpG (probably C26 of top strand; marked in Fig 14A), recombinant protein
  binding result: binds
Pax6 PD/HD; very modest positive effect vs unmethylated, symmetric 5mC at downstream CpG (probably C26 of top strand; marked in Fig 14A)
  binding result: binds

## TTCAGGAAAATTTCCGCATGAATGGCGCAGCTCGAGT (double strand) [motif 3-3 unmethylated]
Pax6 PD(5a)/HD; recombinant protein
  binding result: no binding
Pax6 PD/HD
  binding result: binds

## TTCAGGAAAATTTCCGCATGAATGGCGCAGCTCGAGT (double strand) [motif 3-3 upstream CpG methylated]
Pax6 PD(5a)/HD; symmetric 5mC at upstream CpG (probably C15 of top strand; marked in Fig 14A), recombinant …
  binding result: no binding
Pax6 PD/HD; slightly increased vs unmethylated, symmetric 5mC at upstream CpG (probably C15 of top strand; marked in Fig 14A)
  binding result: binds
